From patent US20060040945A1, “Annellated pyrrole compounds as proton pump inhibitors for treating ulcer” (MERCKLE GMBH, priority 2002, published 2006) come the findings set out here.

This assay concerns rabbit gastric parietal cells. Nature of the assay: [14C]-aminopyrine (acid) accumulation in isolated gastric parietal cells. It is filed as cell-based. To be noted: up to concentrations of 10^−4 M. The procedure: Strategy. Gastric parietal cells were isolated from New Zealand White Rabbits by pronase/collagenase digestion of fundic mucosa followed by enrichment of cells on discontinuous Nycodenz gradients in a manner known per se. Aminopyrine accumulation into parietal cells was assessed in 96 well filter plates with Durapore membranes. […] All determinations were performed in quadruplicate. Basal aminopyrine accumulation was determined as aminopyrine accumulation into […] (a reflection of non-specific isotope trapping).

Structures are written as SMILES.

Take `COc1ccc2cc([C@H](C)C(=O)O)ccc2c1` [naproxen]: the “effect on acid accumulation by isolated rabbit parietal cells” value was “no effect”.
